{
  "source": "PubChem BioAssay AID2417",
  "about": "(National Center for Advancing Translational Sciences (NCATS), 2010)",
  "note": "About 4,300 (3.1%) of roughly 140,000 compounds were called active. This list was built around the results that the source calls inconclusive (neither active nor inactive); the mix of calls is not that of the screen.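 Rule for the calls: active = readout at or below -70, meaning at least 70% loss of cells showing the perinucleolar compartment, a nuclear body marking cancer cells; inconclusive = readout between -30 and a set limit; inactive = the rest.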",
  "data": [
    {"assay": "High Content Assay for Compounds that inhibit the Assembly of the Perinucleolar Compartment;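 note: plate controls were DMSO wells for no effect and camptothecin positive control wells for full effect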", "details": "PC3M PTB-GFP, PNC prevalence imaging, 16 h; at 10 µM; active compounds read low", "procedure,_shortened": "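PC3M cells stably expressing PTB-GFP, 750–1000 cells/well, treated 16 h at 37 °C with compound (23 nl of library stock), in duplicate. After paraformaldehyde fixation and Hoechst stain, imaged at 20x; PNC prevalence scored by image analysis.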", "values": [
      {"smiles": "Cc1ccc(-c2nnc(SCC(=O)Nc3ccc4c(c3)oc3ccccc34)n2C)c(Cl)c1", "activity change (PNC), negative = inhibition": "inactive: -11.6%"},
      {"smiles": "CCOc1ccc(NC(=O)Cn2nnc(-c3ccccc3NC(=O)CC)n2)cc1", "activity change (PNC), negative = inhibition": "active: -84.2%"},
      {"smiles": "O=C(c1cccs1)N1CCN(C(=O)C2CCCO2)CC1", "note": "(stereo not given)", "activity change (PNC), negative = inhibition": "inactive: -0.805%"},
      {"smiles": "Cc1cccc(C(=O)Nc2cccc(C(=O)N/N=C/c3ccncc3)c2)c1", "activity change (PNC), negative = inhibition": "inconclusive: -64%"},
      {"smiles": "O=C(c1ccc2c(c1)OCO2)N(c1ccc(Cl)cc1)C1C=CS(=O)(=O)C1", "note": "(stereo not given)", "activity change (PNC), negative = inhibition": "inactive: 12.8%"},
      {"smiles": "O=S(=O)(NCc1ccc2c(c1)OCO2)c1cnc[nH]1", "activity change (PNC), negative = inhibition": "inconclusive: -38%"},
      {"smiles": "CCn1nnnc1SCC(=O)Nc1nnc(C(C)C)s1", "activity change (PNC), negative = inhibition": "inconclusive: -51.3%"},
      {"smiles": "O=C1/C(=C/c2ccc(C(=O)O)cc2)CCC/C1=C\\c1ccc(C(=O)O)cc1", "activity change (PNC), negative = inhibition": "active: -92.6%"},
      {"smiles": "O=[N+]([O-])c1ccc(C=Nc2ccc(Cl)cc2Cl)s1", "activity change (PNC), negative = inhibition": "inconclusive: -48%"},
      {"smiles": "CN(C(=O)COC(=O)c1nc(-c2ccccc2)n(-c2ccccc2)n1)C1CCS(=O)(=O)C1", "note": "(stereo not given)", "activity change (PNC), negative = inhibition": "inactive: -24.8%"},
      {"smiles": "Clc1ccc(Cl)c(-c2nn3c(COc4ccccc4)nnc3s2)c1", "activity change (PNC), negative = inhibition": "inactive: -1.95%"},
      {"smiles": "CN1c2ccsc2/C(=N/NC(=O)c2c(F)cccc2F)CS1(=O)=O", "activity change (PNC), negative = inhibition": "inactive: -0.0721%"},
      {"smiles": "COc1cc(/C=N/N2C(=O)C3C4c5ccccc5C(c5ccccc54)C3C2=O)ccc1O", "note": "(stereo not given)", "activity change (PNC), negative = inhibition": "inconclusive: -73.1%"},
      {"smiles": "CCCOc1ccc(NC(=O)CC2C(=O)N(Cc3ccccc3)C(=S)N2Cc2cccs2)cc1", "note": "(stereo not given)", "activity change (PNC), negative = inhibition": "inactive: 5.69%"},
      {"smiles": "CN(c1ccccc1C(=O)N1CCCC1)S(C)(=O)=O", "activity change (PNC), negative = inhibition": "inconclusive: -66%"},
      {"smiles": "O=CN1CCN(C2CC(=O)N(c3ccc(Br)cc3)C2=O)CC1", "note": "(stereo not given)", "activity change (PNC), negative = inhibition": "active: -86.4%"},
      {"smiles": "O=C(NCCc1cccs1)C1CC(c2ccc([N+](=O)[O-])cc2)=NO1", "note": "(stereo not given)", "activity change (PNC), negative = inhibition": "inconclusive: -38.3%"},
      {"smiles": "NC(=O)C1(N2CCCCC2)CCN(CC(=O)Nc2cc(Cl)ccc2Cl)CC1", "activity change (PNC), negative = inhibition": "inconclusive: -70.6%"},
      {"smiles": "COC(=O)c1ccc(-c2nn(C)c(=O)c3ccccc23)cc1", "activity change (PNC), negative = inhibition": "active: -108%"},
      {"smiles": "O=C(C1Cc2ccccc2CN1S(=O)(=O)c1cccs1)N1CCCCCC1", "note": "(stereo not given)", "activity change (PNC), negative = inhibition": "inconclusive: -57.5%"},
      {"smiles": "CC(=O)c1ccc(Sc2nnnn2-c2ccccc2)c([N+](=O)[O-])c1", "activity change (PNC), negative = inhibition": "inactive: -6.17%"},
      {"smiles": "COc1ccc(C(=O)NCC(=O)OC2CCCCC2=O)cc1", "note": "(stereo not given)", "activity change (PNC), negative = inhibition": "inconclusive: -48.8%"},
      {"smiles": "CN(C)c1ccc(C(=O)c2ccccc2)cc1", "activity change (PNC), negative = inhibition": "inactive: 10.3%"},
      {"smiles": "COc1ccc2cc(/C=N/NC(=O)c3c(Cl)cnn3C)c(Cl)nc2c1", "activity change (PNC), negative = inhibition": "active: -85.6%"},
      {"smiles": "Cc1ccc(-c2nc3ccccn3c2NC(=O)c2ccco2)cc1", "activity change (PNC), negative = inhibition": "inactive: -20.2%"}
    ]}
  ]
}
